Measured values: paper PMC3527443
Results are given in words; binding and its absence hold for the method and conditions named. Binding seen in cells or lysates may run through a third protein. Some entries that bind do so weakly or less than the wild type. For some assays here: Tags and fused reporters may be left off the sequences shown.

Sequences of proteins named here, by UniProt entry; tags and fusion partners are left off.
UniProt Q15599: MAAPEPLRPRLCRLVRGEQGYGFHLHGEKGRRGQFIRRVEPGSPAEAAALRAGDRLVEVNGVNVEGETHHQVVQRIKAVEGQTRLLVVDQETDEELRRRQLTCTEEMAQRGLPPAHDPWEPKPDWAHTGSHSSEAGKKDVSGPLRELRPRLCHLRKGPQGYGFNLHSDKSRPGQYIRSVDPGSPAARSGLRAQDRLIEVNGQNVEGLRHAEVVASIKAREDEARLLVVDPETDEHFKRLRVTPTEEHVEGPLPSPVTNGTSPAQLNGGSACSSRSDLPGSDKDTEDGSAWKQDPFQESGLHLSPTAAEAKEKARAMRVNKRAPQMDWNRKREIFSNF

Assays:
[1] = biological target: T1, HA-tagged C3aR (C3a receptor) (UniProt Q16581); assay: co-IP; HEK293 cells transiently co-transfected with HA-tagged receptor (4 µg cDNA) and Flag-tagged NHERF (2 µg); cells exposed to buffer or C3a (100 nM, 37°C, 5 min); lysate immunoprecipitated with anti-HA agarose beads, 4°C, 4 h; washed twice in RIPA lysis buffer and once in ice-cold PBS; blot probed with anti-Flag (M2)
T1 sequence: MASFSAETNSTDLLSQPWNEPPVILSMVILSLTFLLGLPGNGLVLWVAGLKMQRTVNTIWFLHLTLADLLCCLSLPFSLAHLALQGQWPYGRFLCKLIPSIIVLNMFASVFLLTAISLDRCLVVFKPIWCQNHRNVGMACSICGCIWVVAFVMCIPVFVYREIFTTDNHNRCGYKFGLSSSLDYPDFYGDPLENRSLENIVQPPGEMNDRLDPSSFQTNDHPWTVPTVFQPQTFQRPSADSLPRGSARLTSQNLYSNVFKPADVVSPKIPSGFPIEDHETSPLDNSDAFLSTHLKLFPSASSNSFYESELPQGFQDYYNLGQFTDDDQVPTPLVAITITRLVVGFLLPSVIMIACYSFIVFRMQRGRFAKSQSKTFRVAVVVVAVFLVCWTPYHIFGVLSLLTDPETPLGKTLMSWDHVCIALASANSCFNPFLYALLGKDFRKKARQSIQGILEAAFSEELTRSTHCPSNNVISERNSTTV

[2] = biological target: HA-tagged β2 adrenergic receptor (UniProt P07550); assay: as above

Q: Which results are given for “Flag-tagged NHERF2 (Na+/H+ exchanger regulatory factor-2) (from UniProt Q15599 1-337)”?
A: binding [1]: no binding; binding [2]: binds
